# Hit rate of the full screen: of about 52,000 sequences, about 210 (0.4%) were called active.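 How the source made its calls: active means gene whose silencing raises cell survival under the drug, median off-target-corrected z-score across its silencing RNAs 2 or more; inactive means the rest.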 The list shows a part of the results.
# Assay: Resistance to Poly (ADP-Ribose) Polymerase inhibitor: Gene Identification via Genome-wide siRNA Screen
# Conditions: mouse BRCA2 R2336H ES cells, olaparib, CellTiter-Glo viability; active compounds read high
# Summary of the method: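 Mouse BRCA2 R2336H ES cells were reverse-transfected with siRNA (20 nM final), treated at 48 h with 500 nM olaparib, and read by CellTiter-Glo after 72 h. Scores: MAD-based z per siRNA, median per gene, seed off-target correction.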
row,Sequence,z-score
1,GGCAUGGAAGGAGGUGCUUTT against Nedl2,inactive: 4.53
2,GGCUGACCACCAAAUUGUUTT against 2310043L02Rik,inactive: -3.3
3,GGCACACUUGUGUAAUAUUTT against D13Wsu177e,inactive: -1.36
4,CUUCGUAGCAGUCAUCCUUTT against Bcl2,inactive: 1.3
5,GGGACUGUCUCCAAGACUCTT against Nkx2-9,inactive: -2.11
6,GGAAAGUGAUCCAGAAAUGTT against Olfr1026,inactive: 0.14
7,GGUAAAAUACCUAAGAACCTT against Pnma2,inactive: 0.923
8,CGAAGCUGGUUUACCAAAATT against Gna14,inactive: -2.28
9,GGAUGGGUCCAUUGAGCCATT against Lrpap1,inactive: -3.34
10,GGGAGGAAGGAAGAGUAUUTT against Itga4,inactive: 0.225
11,GGAGGAAUUUCAAAUACUATT against A530032D15Rik,inactive: -0.553
12,GGACAUGUGUGCAAAUCCATT against Slc35f3,inactive: 0.558
13,GCAGACAGAAGAACACCAGTT against 1700024G13Rik,inactive: 1.12
14,GGUGCUUCCAACUUCACAGTT against Bcorl1,inactive: -0.782
15,GGACUUCAGCAAAUCCAAGTT against 4931415M17,inactive: -0.428
16,GCAGUCACCUUCAAAAAAATT against BC018101,inactive: 0.903
17,GGAGCAAGAUGUUUCUGAATT against BC021790,inactive: 0.393
18,GGAGUUAUUUCCUAGAACATT against 2510004L01Rik,inactive: 0.339
19,GCUGGCACAAUCUUUCAAATT against Cdh8,inactive: 0.437
20,GCUUGGAUUGCCCUGAUUUTT against Olfr640,inactive: -1.02
21,CCAGUUAAGGCCAUUGUAATT against Jundm2,inactive: -1.16
22,GGCCAUUGGACACAGAAUCTT against Rpl35a,inactive: -3.24
23,CCAUGUCAGUAUCUCAUGUTT against Pdc,inactive: -0.0468
24,CGGACUGUGUGUGCCAAGUTT against 2410075D05Rik,inactive: -2.14
25,GCUUUGGCUCAAAGCACGUTT against Mcm3,inactive: -0.0953
26,GCCGAUGUGUUAGUGGCUATT against Ddx28,inactive: -0.644

row,Sequence,z-score
1,GGGUCCUCUGCUCAUUUGGTT against Wdr17,inactive: -0.669
2,GCUAGAAAAAAAUCAGUUGTT against D3Ertd194e,inactive: 0.309
3,CCAAAAUUAAUGUGACAGATT against 2210408I21Rik,inactive: 0.33
4,GCCUUUCAUGGAUUAACCUTT against Mlze,inactive: 0.618
5,GGUCCACUUAGUGGCUUAATT against Atp5f1,inactive: -1.51
6,GGAGUUAAAAGAUGUAAUCTT against Pip5k3,inactive: 0.249
7,GGAUUUCUUAGCCAUGUUCTT against Lpxn,inactive: -0.208
8,GGGCAAACCCAAGACCUUATT against 4933405A16Rik,inactive: -0.423
9,CCAAACAUAGAUGUUACUGTT against Ace2,inactive: 0.24
10,GGCCAUGGUGGCGUGUUAUTT against Egln2,inactive: 0.716
11,CGUUGUGUAUAGGUCUUUATT against M6pr,inactive: -1.03
12,GGGCUGAUGUGGGCUAAAUTT against 1110001E17Rik,active: 4.07
13,GCUUACUCUGUGGAUCCAGTT against LOC432436,inactive: -1.43
14,GGAGAUGUUACACAAAAUCTT against 4-Sep,inactive: 0.723
15,GAAGAAGCCUACAGUGACCTT against D5Ertd689e,inactive: 0.637
16,GUGACCAGCUAUAAUCAGATT against Ins1,inactive: -0.393
17,GGUCCACACUUUCUGUCUUTT against Mkks,inactive: 0.372
18,CGGGCGUGUGUUUGAAAAGTT against Cpox,inactive: -0.0416
19,GGUUAAAGGGAAUUUUAUGTT against Zcchc14,inactive: -0.472
20,GGAGGAAGAGGUCAUCUUCTT against Olfr1378,inactive: 0.947
21,GGGAUUAUUCAGUCUAUGUTT against Lgals12,inactive: -1.31
22,GCAGAUCCGAAUCAAUGAGTT against Ptk9l,inactive: 0.0367
23,GGUAAUGAGACGCGGUUUATT against Ina,inactive: 0.136
24,GGAAAAGAUUUUUCUCUGATT against Usp26,inactive: -0.291
25,GGUGCUUUUACAUCUCACATT against Cd72,inactive: 0.0574
26,GGAAGGAAGAGAUGAAGAATT against Cetn1,inactive: -1.45

row,Sequence,z-score
1,CCCUAUAUAUCCACAUGUUTT against Mc3r,inactive: -1.72
2,GCUUAUACCUCCAUCAUCGTT against Cops8,inactive: -1.87
3,GGCUAACGAAGAAUAUCAATT against Tusc3,inactive: 0.847
4,GCACCACUAUUUUAGCAUATT against Rap1b,inactive: -0.346
5,GGCGGAUGACCUAGAGGAUTT against BC013672,inactive: 0.23
6,CGAUGAAAUGAUAUGCAAATT against Jarid1b,inactive: 1.61
7,GGAAAUAAAGUGAGUUUUGTT against 5730466H23Rik,inactive: 2.37
8,CCUGCUCCUUACAUCUCGCTT against A430097D04Rik,inactive: -0.0558
9,CCUACAAACCAGAAGAGGUTT against Akr1c19,inactive: 0.291
10,CCGCUUUCUUGCCAUUCACTT against Olfr576,inactive: 0.31
11,GCAUUUUGAGAAAGCAAUUTT against 2410005O16Rik,inactive: 0.565
12,GGCUUUUGUAACGAAAGGCTT against Wif1,inactive: 2.08
13,GGGUGUGAAGUCAUGGUAUTT against 6430573F11Rik,inactive: 0.498
14,GGAAUCCUUGAGACAGAUUTT against Impg1,inactive: -2.3
15,GCCACUAGCCUUUCAAAAGTT against Muc1,inactive: 1.6
16,GGAUGUAGGUGACUGUCGATT against 4932411K12,inactive: -2.19
17,GGAAGAUGAUCUUGACCAGTT against 4930455F23Rik,inactive: 2.96
18,GGUCAUUCUGUACAUACAUTT against Slc37a3,inactive: -2.47
19,CCAUGUUCAGAAGAGAAUATT against Igsf11,inactive: -0.248
20,GGAAAUAUGAUCCAUCCUGTT against Zfp282,inactive: 1.65
21,CCUUCUAUGCCUCCUACAATT against LOC626359,inactive: -0.562
22,CCUUAAUAAAUCUAGUGGCTT against Stmn3,inactive: 0.0477
23,GGUGAUGCUGGAAUCUUCCTT against 1110030H18Rik,inactive: 0.0193
24,GGAUUAUGAGAAUCAAACCTT against Serpina10,inactive: 1.44
25,CCUCAAGCCCAAGUAAGACTT against Dp1l1,inactive: 0.42
26,GCAAAUAGGGAGGUUCCUGTT against Ypel1,inactive: -0.597

row,Sequence,z-score
1,GCCUUUUGUACUAAGGUCCTT against 2610041B18Rik,inactive: 0.433
2,CCUUAGACUGUUCAGUCCUTT against 4633402N23Rik,inactive: -0.471
3,GGAACCAAUCUUGGUCUCATT against Tln2,inactive: -0.513
4,CCAACGAUGCUGUCAGAAATT against Gys2,inactive: -1.49
5,GGAGGAAGAAAUGGUCUGGTT against Tsga8,inactive: -1.65
6,GGCUUUCUCGUUUUGAUAUTT against Nln,inactive: -1.61
7,GGCCUUUAAACAGAUUGAATT against Zfp37,inactive: 1.51
8,CCCUUGAGUCAAAUGUCACTT against BC049730,inactive: 0.14
9,GGCCUUCAGUGACAAAGACTT against Dmrt3,inactive: 0.768
10,CCACUAAUCUUCUUCUACATT against Olfr1311,inactive: 1.24
11,GCCUUAAUGCUUCAAGGUGTT against Hspd1,inactive: 0.477
12,GGAACUUGGGUGAAUAAAUTT against Serpind1,inactive: -1.5
13,GUAUUUCUACUAUGUGGAUTT against C030006K11Rik,inactive: 0.406
14,CCGUGAAUGUGAUAAUCCATT against Adamts8,inactive: 2.5
15,GGCGCAUUCAUGUAUCUUCTT against Olfr908,inactive: -0.455
16,CCUACCUGGUAGCAAGAAATT against Gphn,inactive: -1.18
17,GCCCAUUGUAAUAAAAGCCTT against Dnali1,inactive: 1.6
18,GGCCAUAAACAACCAUUUATT against Ppp1r1b,inactive: -0.065
19,GCUCAUUUGCACAACAUGCTT against Bcl11b,inactive: 0.657
20,GGCGGAAACUCAAGUUCUUTT against Mcoln3,inactive: 1.01
21,GGUUUCUUCUUCUGUUCAUTT against 2310008M10Rik,inactive: -1.92
22,GGCCAAGAAGAAGAAGAGATT against Ttf1,inactive: -1.99
23,CCCAGGUGAGGAUUGAUAATT against Rit2,inactive: -1.61
24,GGAAAUAGCUAAUCAGAAATT against 2610304F09Rik,inactive: -2.71
25,GCAUGUCAUCCACAAAUACTT against Dpm2,inactive: 2.2
26,GCGACCAGGACCGCGUCAATT against Sox3,inactive: 1.84

# Random excerpt: six entries already listed.
row,Sequence,z-score
7,GGCCUUUAAACAGAUUGAATT against Zfp37,inactive: 1.51
3,GGAACCAAUCUUGGUCUCATT against Tln2,inactive: -0.513
10,GGCCAUGGUGGCGUGUUAUTT against Egln2,inactive: 0.716
21,GGUUUCUUCUUCUGUUCAUTT against 2310008M10Rik,inactive: -1.92
5,GGAGGAAGAAAUGGUCUGGTT against Tsga8,inactive: -1.65
7,GGUAAAAUACCUAAGAACCTT against Pnma2,inactive: 0.923

# An excerpt of these results, bar-delimited:
row | Sequence | z-score
26 | GGAAGGAAGAGAUGAAGAATT against Cetn1 | inactive: -1.45
1 | CCCUAUAUAUCCACAUGUUTT against Mc3r | inactive: -1.72
4 | GCACCACUAUUUUAGCAUATT against Rap1b | inactive: -0.346

# From PubChem BioAssay AID1347423 (Functional Genomics Laboratory (NCATS/FGL), 2020)
